The other results are listed elsewhere or left out. Single values are uncertain, as repeats are few or missing.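 The assay uses human stem cell-derived hepatocyte-like cells whose DGUOK gene was disrupted by CRISPR, modeling liver mtDNA depletion syndrome. ATP signals were scored within each plate, and any drug with a score of at least 3 was called a primary hit.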 Positions of bridges follow the written chain, without caps; N, C: chain ends. Non-standard residues stand in square brackets, D forms with d. Residues, ends and D or L forms follow the SMILES beside them. *: point of attachment. Ileψ(thiazoline)Cys = CC[C@H](C)[C@H](N)C1=N[C@H](C(=O)*)CS1; dOrn = NCCC[C@@H](N)C(=O)O
tested on: DGUOK Δ14/Δ5 iPSC-derived hepatocyte-like cells (SV20); experiment: ATP level (CellTiter-Glo luminescence) Z score relative to plate distribution, under 2-DG glycolysis block; higher = more cellular ATP (rescue of mitochondrial ATP production); settings: 5 µM; treatment time: day 15 to day 20 of differentiation (5 days); 2-deoxy-D-glucose: 20 mM for 24 h before assay

Structure (SMILES) | ATP level
COc1c2ccoc2c(OC)c2oc(=O)ccc12 | inactive: 0.807
COc1ccc([C@@H]2CC(=O)c3c(O)cc(O[C@@H]4O[C@H](CO[C@@H]5O[C@@H](C)[C@H](O)[C@@H](O)[C@H]5O)[C@@H](O)[C@H](O)[C@H]4O)cc3O2)cc1O | inactive: -1.68
CC(C)(C(=O)O)c1ccc(C(O)CCCN2CCC(C(O)(c3ccccc3)c3ccccc3)CC2)cc1 (stereo unspecified) | inactive: 0.868
COc1ccc2c(c1)OC/C(=C\c1ccc(OC)c(O)c1)C2=O | inactive: -1.65
C[N+]1(C)[C@@H]2CC[C@H]1C[C@@H](OC(=O)C(O)c1ccccc1)C2 (stereo partly specified) | inactive: 1.47
COC(=O)C1=C(C)NC(C)=C(C(=O)OCCN2CCN(C(c3ccccc3)c3ccccc3)CC2)C1c1cccc([N+](=O)[O-])c1 (stereo unspecified) | inactive: 1.82
C=Cc1c(C)c2cc3[nH]c(cc4nc(cc5nc(cc1[nH]2)C(C)=C5CCC(=O)O)C(CCC(=O)O)=C4C)c(C)c3C=C | inactive: -8
COC(=O)[C@H]1[C@H]2C[C@H]3c4[nH]c5ccccc5c4CCN3C[C@@H]2CC[C@@H]1O | inactive: -2.12
CC(=O)Nc1ccccc1 | inactive: 0.346
O=C1OC2(c3ccccc31)c1cc(I)c(O)c(I)c1Oc1c2cc(I)c(O)c1I | inactive: 1.26
CSc1ccc2c(c1)C(N1CCN(C)CC1)Cc1ccccc1S2 (stereo unspecified) | inactive: -6.15
CC(C(=O)O)c1ccc2c(c1)Cc1cccnc1O2 (stereo unspecified) | inactive: -1.37
C[C@H]1COc2c(C3(N)CC3)c(F)cc3c(=O)c(C(=O)O)cn1c23 | inactive: -2.02
COc1ccc(-c2cc(=O)c3c(O)c(OC)c(O[C@@H]4O[C@H](CO[C@@H]5O[C@@H](C)[C@H](O)[C@@H](O)[C@H]5O)[C@@H](O)[C@H](O)[C@H]4O)cc3o2)cc1 | inactive: 1.09
Cn1c(=O)[nH]c(=O)c2[nH]cnc21 | inactive: -6.62
OC[C@H]1O[C@H](O[C@]2(CCl)O[C@H](CCl)[C@@H](O)[C@@H]2O)[C@H](O)[C@@H](O)[C@H]1Cl | inactive: -0.28
O=C(O)[C@@H](O)[C@H](O)[C@H](O)[C@@H](O)C(=O)O | inactive: 1.72
CN1CCC(=C2c3ccccc3CCc3cccnc32)CC1 | inactive: 1.24
COc1ccc2c(c1)c(CC(=O)O)c(C)n2C(=O)c1ccc(Cl)cc1 | inactive: 2.37
CC1(C)C=Cc2c(c3c(c4c(=O)c(-c5ccc(O)c(O)c5)coc24)OC(C)(C)CC3)O1 | inactive: 2.82
CC(C)(C)NCC(O)COc1cccc2c1CCC(=O)N2 (stereo unspecified) | inactive: 0.706
CC(=O)NCCCS(=O)(=O)O | inactive: 1.18
COc1ccc2c(c1OC)C(=O)O[C@@H]2[C@H]1c2c(cc3c(c2OC)OCO3)CCN1C | inactive: 0.762
O=C(O)c1cc(/N=N/c2ccc(O)c(C(=O)O)c2)ccc1O | inactive: 1.07
CCOC(=O)O[C@]1(C(=O)COC(=O)CC)CC[C@H]2[C@@H]3CCC4=CC(=O)C=C[C@]4(C)[C@H]3[C@@H](O)C[C@@]21C | inactive: 1.58
OC(CNCC(O)C1CCc2cc(F)ccc2O1)C1CCc2cc(F)ccc2O1 (stereo unspecified) | inactive: -4.84

Structure (SMILES) | ATP level
Cc1c[nH]c2ccccc12 | active: 3.49
CC(=O)NS(=O)(=O)c1ccc(NC(=O)c2ccccc2C(=O)O)cc1 | inactive: -1.36
O=c1cc(-c2ccc(O)cc2)oc2ccc(O)cc12 | inactive: 0.911
CC[C@H](C)[C@H](N)C1=N[C@H](C(=O)N[C@@H](CC(C)C)C(=O)N[C@H](CCC(=O)O)C(=O)N[C@H](C(=O)N[C@H]2CCCCNC(=O)[C@H](CC(N)=O)NC(=O)[C@@H](CC(=O)O)NC(=O)[C@H](Cc3cnc[nH]3)NC(=O)[C@@H](Cc3ccccc3)NC(=O)[C@H]([C@@H](C)CC)NC(=O)[C@@H](CCCN)NC2=O)[C@@H](C)CC)CS1 ({Ileψ(thiazoline)Cys}-L[dE]IK[dOrn]I[dF]H[dD]N; lactam 4-C) | inactive: 0.766
O=C(CCc1ccc(O)cc1)c1c(O)cc(O)cc1O | inactive: 0.913
CN1CCN(CCCN2c3ccccc3Sc3ccc(C(F)(F)F)cc32)CC1 | inactive: -3.36
CC(S)C(=O)NCC(=O)O (stereo unspecified) | inactive: 0.635
Cn1c(=O)c2nc(C3CCCC3)[nH]c2n(C)c1=O | inactive: -0.376
COC(=O)C[C@H]1C(C)(C)C2(O)OC34CC2C(=O)[C@]1(C)C3CC[C@]1(C)C4=CC(=O)O[C@H]1c1ccoc1 (stereo partly drawn) [8beta-HYDROXYCARAPIN, 3,8-HEMIACETAL] | inactive: -0.889
CNC[C@H](O)c1ccc(O)c(O)c1 | inactive: 1.03
COc1cc(/C=C/C(N)=O)cc(OC)c1OC | inactive: 0.361
O=C1c2ccc(O)c(O)c2C(=O)c2c(O)ccc(O)c21 | inactive: 1.38
CN(C(=O)C(Cl)Cl)c1ccc(OC(=O)c2ccco2)cc1 | inactive: 0.391
Nc1ccn([C@H]2CC[C@@H](CO)O2)c(=O)n1 | inactive: -4.22
Oc1cc(O)c2c(c1)O[C@H](c1cc(O)c(O)c(O)c1)[C@H](O)C2 | inactive: -3.92
COc1ccc(-c2cc(=O)c3cc(OC)ccc3o2)cc1 | inactive: -1.76
CC(=O)c1ccc2c(c1)N(CCCN(C)C)c1ccccc1S2 | inactive: -1.93
CN(C)CCOC(C)(c1ccccc1)c1ccccn1 (stereo unspecified) | inactive: -1.65
C=CCNC(N)=S | inactive: 0.365
Oc1c(I)cc(Cl)c2cccnc12 | inactive: -4.71
C=CC(C1=CC(=O)C(OC)=CC1=O)c1ccc(OC)cc1 (stereo unspecified) | inactive: -2.28
CC(C)(C#N)c1cc(Cn2cncn2)cc(C(C)(C)C#N)c1 | inactive: -0.696
COc1cc(C)c2c(c1C=O)Oc1c(c(C)c(O)c3c1C(O)OC3=O)OC2=O (stereo unspecified) | inactive: 1.73
CC[C@]1(O)C[C@H]2CN(CCc3c([nH]c4ccccc34)[C@@](C(=O)OC)(c3cc4c(cc3OC)N(C=O)[C@H]3[C@@](O)(C(=O)OC)[C@H](OC(C)=O)[C@]5(CC)C=CCN6CC[C@]43[C@@H]65)C2)C1 | inactive: 1.3
NC[C@@H]1O[C@H](O[C@H]2[C@@H](O)[C@H](O[C@@H]3[C@@H](O)[C@H](N)C[C@H](N)[C@H]3O[C@H]3O[C@H](CO)[C@@H](O)[C@H](O)[C@H]3N)O[C@@H]2CO)[C@H](N)[C@@H](O)[C@@H]1O | active: 3.08

Quoted from the results shown (4 entries):
Structure (SMILES) | ATP level
Cn1c(=O)c2nc(C3CCCC3)[nH]c2n(C)c1=O | inactive: -0.376
COC(=O)C[C@H]1C(C)(C)C2(O)OC34CC2C(=O)[C@]1(C)C3CC[C@]1(C)C4=CC(=O)O[C@H]1c1ccoc1 (stereo partly drawn) [8beta-HYDROXYCARAPIN, 3,8-HEMIACETAL] | inactive: -0.889
CNC[C@H](O)c1ccc(O)c(O)c1 | inactive: 1.03
COc1cc(/C=C/C(N)=O)cc(OC)c1OC | inactive: 0.361
